For at least one compound, name, drawing or mass did not settle the structure.
Tested on: murine model of APS
Experiment: Fetal weight / IUGR in murine model of APS
Assay type: in vivo, mouse
Conditions: aPL-treated mice, statin i.p. 18 hours prior to aPL on days 8 and 12, day 15; FIG. 8, FIG. 9

CCC(C)(C)C(=O)O[C@H]1C[C@@H](C)C=C2C=C[C@H](C)[C@H](CC[C@@H]3C[C@@H](O)CC(=O)O3)[C@H]21 [Simvastatin, simvastatin]
IUGR / fetal weight: prevented aPL-induced IUGR
